Source: PubChem BioAssay AID504764 (Drosophila RNAi Screening Center, 2011)

Test: 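Genes whose knock-down alters Notch-dependent transcription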 (primary screen)
Cells: Drosophila Kc167 cells
Reagent: long dsRNA against Drosophila genes
Duration: about 5 days (4 days dsRNA, then 24 h after transfection)
Conditions: transfection of constitutively active membrane-tethered Notch lacking the extracellular domain, read 24 h later
Detection: 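Light from a Notch-responsive E(spl)m3 luciferase reporter under active Notch, with control-promoter and no-Notch reporter wells to normalise; raw counts from paired wells a and b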
Reading the numbers: induced reporter light, run 1, well a and induced reporter light, run 1, well b: higher = more light from the Notch target reporter with active Notch; control promoter light, run 1, well a and control promoter light, run 1, well b: higher = more light from the viral control promoter (cell number, transfection, viability); uninduced reporter light, run 1, well a: higher = more light from the Notch target reporter without active Notch
Hit rule: 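Wells with low control signal or poorly matching duplicates excluded; duplicates averaged; per source plate, z beyond ±2 for induced/control log2 ratio or beyond ±1.8 for induced/uninduced marks a hit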
Calls: active = modifier hit (raised or lowered Notch signal); inactive = not a hit
In all, the deposit lists about 22,000 reagents; this is an unselected part of those with a known target gene and a result. Of all reagents, 403 (1.9%) got an active call. 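Unnormalised raw counts per well; ratio z-scores behind the hit calls and whether each hit raises or lowers signal are not deposited.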 Entries without a mark were called inactive. A plus sign joins genes that one reagent is predicted to hit. Not stated in the record: the amount of reagent.

no.	Gene	dsRNA	induced reporter light, run 1, well a	induced reporter light, run 1, well b	control promoter light, run 1, well a	control promoter light, run 1, well b	uninduced reporter light, run 1, well a
1	Ms	DRSC16041	1.40e5	1.62e5	2.01e5	1.95e5	13360
2	Ctr1A	DRSC18336	1.57e5	1.34e5	2.53e5	2.34e5	8925
3	CG4704	DRSC15628	2.11e5	2.08e5	2.39e5	2.06e5	17185
4	ND-20	DRSC20164	1.78e5	1.45e5	1.77e5	1.76e5	11895
5	Cyp12a5	DRSC16621	1.94e5	1.58e5	1.72e5	1.81e5	13438
6	Rrp42	DRSC07161	73310	99445	1.37e5	1.19e5	8430
7	Obp47a	DRSC06255	1.92e5	1.87e5	2.08e5	2.07e5	14750
8	thr	DRSC07706	84475	89050	1.56e5	2.01e5	7840
9	CG5815	DRSC14135	1.23e5	1.26e5	1.61e5	1.47e5	10535
10	CG12620	DRSC02177	1.44e5	1.68e5	1.87e5	1.69e5	12920
11	CG17024 (retired record)	DRSC02562	1.35e5	1.60e5	1.49e5	2.07e5	13215
12	CG7912	DRSC16343	1.24e5	1.46e5	1.55e5	1.52e5	12560
13	CNT2	DRSC07073	69335	69590	80120	71675	7070
14	CG7945	DRSC10934	1.68e5	1.81e5	73740	92105	9415
15	ClC-c	DRSC10499	1.02e5	1.01e5	84820	75835	7995
16	CG43867	DRSC17582	66465	68425	74535	81575	6135
17	CG43867	DRSC17836	1.46e5	1.21e5	2.14e5	2.27e5	8820
18	CG43867	DRSC17837	1.19e5 (active)	1.43e5	3.09e5	3.53e5	11090
19	CG43867	DRSC17943	1.33e5	1.37e5	2.42e5	2.15e5	8330
20	Pal2	DRSC04507	1.82e5	1.43e5	1.65e5	1.80e5	12205
21	Mtpbeta	DRSC04663	1.97e5	2.30e5	1.64e5	1.61e5	12940
22	pins	DRSC17043	1.28e5	1.21e5	1.59e5	1.32e5	12450
23	CAHbeta	DRSC14449	1.24e5	1.22e5	95985	74665	10145
24	mas	DRSC08720	1.15e5	1.20e5	87900	35005	12620
25	CG18081	DRSC10294	1.84e5	1.55e5	2.10e5	2.13e5	9145
26	Sec24AB	DRSC06478	1.74e5	1.63e5	1.65e5	1.44e5	12130
27	Set8	DRSC15473	1.16e5	1.12e5	91355	83320	11920
28	mst	DRSC20582	92845	74630	85445	1.23e5	10415
29	Tsp66E	DRSC09683	1.28e5	1.27e5	1.32e5	1.15e5	6485
30	CG16782	DRSC18118	1.13e5	1.05e5	1.76e5	2.27e5	7665
31	CG1677	DRSC18116	1.11e5	1.27e5	1.97e5	2.35e5	8205
32	Rilpl	DRSC18494	1.71e5	1.85e5	2.36e5	2.25e5	12138
33	CG30001	DRSC05191	76850	97350	1.04e5	1.22e5	4730
34	Cyp6a18	DRSC16632	1.16e5	1.40e5	1.96e5	1.77e5	11635
35	CG8369	DRSC16413	83355	91565	81395	73440	4330
36	CG9312	DRSC16471	1.39e5	1.43e5	1.12e5	80910	10500
37	Sirt1	DRSC03435	1.81e5	2.35e5	2.31e5	2.30e5	13590
38	CG32576 + UQCR-14	DRSC19870	42460	36965	59625	59690	6800
39	CG10353	DRSC19354	1.21e5	1.71e5	2.47e5	2.29e5	8760
40	CG8541	DRSC10989	1.87e5	1.39e5	1.43e5	1.06e5	8950
41	Pex3	DRSC10731	89795	1.04e5	84075	87195	8390
42	RunxB	DRSC20395	1.14e5	90450	97415	93760	7180
43	RunxB	DRSC20525	45995	64950	51835	66965	9070
44	RunxB	DRSC20526	2332	2620	2670	2735	3240
45	CG14439	DRSC17931	1.23e5	1.29e5	2.16e5	2.53e5	10830
46	CG4115	DRSC15545	72975	66230	54085	50570	4770
47	Cow	DRSC13601	1.89e5	2.21e5	3.66e5	3.33e5	11840
48	Cow	DRSC14680	1.65e5	1.58e5	1.93e5	1.76e5	12245
49	CG14070	DRSC02373	1.07e5	1.28e5	68615	79095	16385
50	Trpml + CG42638	DRSC11032	1.01e5	78385	69415	74725	7850
51	CG13794	DRSC02298	87000	1.59e5	1.11e5	1.41e5	20935
